Source: the supplement of paper PMC6411743
± gives the standard deviation of the averaged measurements. This is one part of the list.

Chains of the proteins cited; added tags and fusions are not shown. Lines headed by an entry give the natural chain unless they say otherwise; changes in a name come on top.
UniProt Q9NYU2: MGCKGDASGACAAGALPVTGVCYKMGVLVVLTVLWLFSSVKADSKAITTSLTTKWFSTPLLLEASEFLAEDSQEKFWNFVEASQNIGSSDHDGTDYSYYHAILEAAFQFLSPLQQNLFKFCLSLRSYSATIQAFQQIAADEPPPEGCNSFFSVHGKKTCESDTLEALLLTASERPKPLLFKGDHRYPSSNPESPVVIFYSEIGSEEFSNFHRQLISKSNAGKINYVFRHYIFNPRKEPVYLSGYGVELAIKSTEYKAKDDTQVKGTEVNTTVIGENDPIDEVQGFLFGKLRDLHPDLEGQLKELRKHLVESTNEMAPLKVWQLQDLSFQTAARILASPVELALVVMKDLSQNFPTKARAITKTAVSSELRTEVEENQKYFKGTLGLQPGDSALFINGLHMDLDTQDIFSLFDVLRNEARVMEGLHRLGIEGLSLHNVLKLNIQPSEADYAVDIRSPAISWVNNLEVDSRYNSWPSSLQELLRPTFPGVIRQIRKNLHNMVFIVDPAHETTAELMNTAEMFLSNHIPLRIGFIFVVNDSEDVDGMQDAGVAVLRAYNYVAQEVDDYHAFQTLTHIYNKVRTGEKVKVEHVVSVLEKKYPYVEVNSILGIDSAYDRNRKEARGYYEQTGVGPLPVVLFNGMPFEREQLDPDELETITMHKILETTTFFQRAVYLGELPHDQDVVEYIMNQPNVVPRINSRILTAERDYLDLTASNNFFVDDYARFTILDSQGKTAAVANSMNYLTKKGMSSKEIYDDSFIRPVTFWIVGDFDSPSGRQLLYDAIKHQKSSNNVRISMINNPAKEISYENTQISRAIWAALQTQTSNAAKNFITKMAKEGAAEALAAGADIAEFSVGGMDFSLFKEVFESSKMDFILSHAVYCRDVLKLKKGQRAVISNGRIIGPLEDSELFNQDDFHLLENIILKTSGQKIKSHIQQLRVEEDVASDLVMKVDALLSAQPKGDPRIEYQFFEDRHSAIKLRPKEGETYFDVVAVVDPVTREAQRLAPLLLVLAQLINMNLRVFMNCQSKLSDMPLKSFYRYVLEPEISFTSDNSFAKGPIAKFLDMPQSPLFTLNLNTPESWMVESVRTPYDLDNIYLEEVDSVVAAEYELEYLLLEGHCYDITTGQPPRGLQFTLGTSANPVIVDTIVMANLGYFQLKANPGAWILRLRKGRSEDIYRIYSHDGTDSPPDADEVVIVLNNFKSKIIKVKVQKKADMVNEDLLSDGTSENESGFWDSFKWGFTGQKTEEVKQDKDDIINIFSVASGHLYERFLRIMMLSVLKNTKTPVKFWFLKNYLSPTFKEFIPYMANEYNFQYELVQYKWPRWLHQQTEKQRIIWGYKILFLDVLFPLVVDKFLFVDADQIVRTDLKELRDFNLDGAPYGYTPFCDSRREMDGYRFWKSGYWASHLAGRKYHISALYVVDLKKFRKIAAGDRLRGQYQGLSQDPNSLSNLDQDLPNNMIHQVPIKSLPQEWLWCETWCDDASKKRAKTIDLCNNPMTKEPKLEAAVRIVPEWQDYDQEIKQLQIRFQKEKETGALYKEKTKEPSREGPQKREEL
UniProt Q9UIJ7: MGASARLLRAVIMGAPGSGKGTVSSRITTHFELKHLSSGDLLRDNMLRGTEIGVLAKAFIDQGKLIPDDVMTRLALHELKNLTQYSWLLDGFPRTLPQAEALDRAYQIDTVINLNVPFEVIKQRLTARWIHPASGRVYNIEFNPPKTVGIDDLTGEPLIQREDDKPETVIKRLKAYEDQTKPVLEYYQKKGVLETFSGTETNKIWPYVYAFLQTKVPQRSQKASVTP
UniProt Q9P2R7: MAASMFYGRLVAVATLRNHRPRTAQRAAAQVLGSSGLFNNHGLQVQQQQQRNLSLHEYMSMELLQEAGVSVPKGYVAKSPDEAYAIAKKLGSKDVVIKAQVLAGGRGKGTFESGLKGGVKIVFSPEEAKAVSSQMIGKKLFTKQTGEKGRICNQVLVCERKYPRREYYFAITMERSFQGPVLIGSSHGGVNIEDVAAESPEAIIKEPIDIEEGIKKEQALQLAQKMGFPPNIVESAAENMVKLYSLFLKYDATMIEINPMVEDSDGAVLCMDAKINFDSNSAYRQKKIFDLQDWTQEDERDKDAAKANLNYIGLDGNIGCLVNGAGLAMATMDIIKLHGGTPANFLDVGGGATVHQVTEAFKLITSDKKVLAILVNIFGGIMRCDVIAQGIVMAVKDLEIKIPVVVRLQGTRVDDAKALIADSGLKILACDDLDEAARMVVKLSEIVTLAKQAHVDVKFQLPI
UniProt Q9UJX6, whole entry: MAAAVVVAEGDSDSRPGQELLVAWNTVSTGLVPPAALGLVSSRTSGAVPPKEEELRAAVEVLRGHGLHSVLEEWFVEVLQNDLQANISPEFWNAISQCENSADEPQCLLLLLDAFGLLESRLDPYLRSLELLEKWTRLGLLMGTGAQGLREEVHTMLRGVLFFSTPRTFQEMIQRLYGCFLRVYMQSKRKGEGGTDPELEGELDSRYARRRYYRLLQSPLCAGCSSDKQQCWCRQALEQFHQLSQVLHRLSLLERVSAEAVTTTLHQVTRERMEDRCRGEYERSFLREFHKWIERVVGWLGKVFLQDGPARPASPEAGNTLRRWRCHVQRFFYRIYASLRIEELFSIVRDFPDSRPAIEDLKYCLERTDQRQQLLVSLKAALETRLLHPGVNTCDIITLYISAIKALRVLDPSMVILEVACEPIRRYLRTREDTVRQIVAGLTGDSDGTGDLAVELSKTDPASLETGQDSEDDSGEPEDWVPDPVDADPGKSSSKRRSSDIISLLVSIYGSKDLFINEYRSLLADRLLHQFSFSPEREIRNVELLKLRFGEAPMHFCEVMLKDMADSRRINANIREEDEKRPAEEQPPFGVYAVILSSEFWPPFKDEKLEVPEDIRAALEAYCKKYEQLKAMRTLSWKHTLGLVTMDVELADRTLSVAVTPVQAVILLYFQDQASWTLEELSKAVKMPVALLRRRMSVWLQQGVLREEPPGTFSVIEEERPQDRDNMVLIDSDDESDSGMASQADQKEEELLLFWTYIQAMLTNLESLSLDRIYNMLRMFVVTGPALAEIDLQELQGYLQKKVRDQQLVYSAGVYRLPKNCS
UniProt Q9UBQ7: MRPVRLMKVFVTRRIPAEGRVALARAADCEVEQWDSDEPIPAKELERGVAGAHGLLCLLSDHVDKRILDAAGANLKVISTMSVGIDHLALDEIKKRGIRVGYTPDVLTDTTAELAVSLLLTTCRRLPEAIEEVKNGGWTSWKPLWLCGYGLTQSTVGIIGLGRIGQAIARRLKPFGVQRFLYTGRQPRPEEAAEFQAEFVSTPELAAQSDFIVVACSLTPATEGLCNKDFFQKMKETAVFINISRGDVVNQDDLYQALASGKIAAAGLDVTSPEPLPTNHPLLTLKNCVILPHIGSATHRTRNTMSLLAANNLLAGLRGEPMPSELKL
UniProt Q9UHI6: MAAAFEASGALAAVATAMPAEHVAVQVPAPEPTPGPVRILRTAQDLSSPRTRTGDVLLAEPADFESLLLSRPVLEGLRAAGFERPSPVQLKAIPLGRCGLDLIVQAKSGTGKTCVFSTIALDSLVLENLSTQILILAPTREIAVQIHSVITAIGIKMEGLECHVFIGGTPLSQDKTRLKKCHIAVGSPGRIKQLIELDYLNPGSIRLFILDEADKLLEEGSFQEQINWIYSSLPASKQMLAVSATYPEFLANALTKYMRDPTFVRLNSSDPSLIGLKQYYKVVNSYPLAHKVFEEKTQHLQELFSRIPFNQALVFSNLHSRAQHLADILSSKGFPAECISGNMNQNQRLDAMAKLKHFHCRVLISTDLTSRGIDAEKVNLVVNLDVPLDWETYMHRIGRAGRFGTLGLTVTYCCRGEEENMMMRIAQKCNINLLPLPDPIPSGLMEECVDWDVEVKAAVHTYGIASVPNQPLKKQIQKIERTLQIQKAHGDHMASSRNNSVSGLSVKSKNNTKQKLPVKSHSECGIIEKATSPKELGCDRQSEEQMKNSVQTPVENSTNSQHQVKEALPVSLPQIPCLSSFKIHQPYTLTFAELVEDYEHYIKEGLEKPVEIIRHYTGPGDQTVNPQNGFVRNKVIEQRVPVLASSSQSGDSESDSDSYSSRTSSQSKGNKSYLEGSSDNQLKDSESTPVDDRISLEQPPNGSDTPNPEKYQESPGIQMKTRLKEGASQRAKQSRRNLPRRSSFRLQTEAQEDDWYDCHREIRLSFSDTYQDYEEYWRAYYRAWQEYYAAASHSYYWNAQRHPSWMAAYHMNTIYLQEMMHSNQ
UniProt Q9P031: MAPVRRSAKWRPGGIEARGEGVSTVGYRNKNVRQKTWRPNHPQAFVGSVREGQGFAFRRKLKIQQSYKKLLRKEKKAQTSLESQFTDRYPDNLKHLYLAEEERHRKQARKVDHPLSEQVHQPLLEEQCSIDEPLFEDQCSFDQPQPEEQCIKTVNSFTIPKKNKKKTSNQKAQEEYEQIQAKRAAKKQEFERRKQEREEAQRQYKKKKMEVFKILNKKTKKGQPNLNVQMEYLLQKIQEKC
UniProt Q9NZI8, whole entry: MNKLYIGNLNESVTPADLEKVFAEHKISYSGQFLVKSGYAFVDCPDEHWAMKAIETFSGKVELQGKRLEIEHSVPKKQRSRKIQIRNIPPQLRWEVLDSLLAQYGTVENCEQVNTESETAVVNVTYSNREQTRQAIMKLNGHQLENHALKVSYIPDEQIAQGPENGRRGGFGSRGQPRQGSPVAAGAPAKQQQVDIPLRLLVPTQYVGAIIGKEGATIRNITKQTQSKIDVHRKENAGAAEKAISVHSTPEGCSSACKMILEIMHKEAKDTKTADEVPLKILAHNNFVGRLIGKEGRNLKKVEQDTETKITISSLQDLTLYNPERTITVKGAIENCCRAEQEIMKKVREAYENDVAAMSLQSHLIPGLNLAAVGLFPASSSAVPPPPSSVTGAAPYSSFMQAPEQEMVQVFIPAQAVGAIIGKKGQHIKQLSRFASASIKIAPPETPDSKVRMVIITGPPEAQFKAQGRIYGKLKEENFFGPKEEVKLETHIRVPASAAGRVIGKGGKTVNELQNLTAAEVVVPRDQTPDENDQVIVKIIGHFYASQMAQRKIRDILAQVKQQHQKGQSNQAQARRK
UniProt Q9UGU5: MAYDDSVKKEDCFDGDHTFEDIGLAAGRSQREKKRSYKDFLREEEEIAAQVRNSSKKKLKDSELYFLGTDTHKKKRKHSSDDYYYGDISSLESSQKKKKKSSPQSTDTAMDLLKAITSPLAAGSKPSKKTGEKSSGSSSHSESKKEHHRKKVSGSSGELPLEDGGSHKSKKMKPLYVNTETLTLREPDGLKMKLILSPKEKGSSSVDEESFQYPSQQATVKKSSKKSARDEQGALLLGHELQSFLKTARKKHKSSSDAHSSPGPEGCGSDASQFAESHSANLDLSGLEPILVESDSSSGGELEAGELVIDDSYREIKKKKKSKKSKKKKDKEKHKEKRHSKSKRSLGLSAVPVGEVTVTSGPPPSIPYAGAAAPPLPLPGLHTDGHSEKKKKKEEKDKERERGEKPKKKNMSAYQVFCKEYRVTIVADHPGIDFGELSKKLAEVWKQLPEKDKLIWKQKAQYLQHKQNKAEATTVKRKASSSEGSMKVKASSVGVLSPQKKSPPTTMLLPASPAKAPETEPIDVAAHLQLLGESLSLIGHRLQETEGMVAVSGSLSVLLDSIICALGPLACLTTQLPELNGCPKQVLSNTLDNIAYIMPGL
UniProt Q9UL03, whole entry: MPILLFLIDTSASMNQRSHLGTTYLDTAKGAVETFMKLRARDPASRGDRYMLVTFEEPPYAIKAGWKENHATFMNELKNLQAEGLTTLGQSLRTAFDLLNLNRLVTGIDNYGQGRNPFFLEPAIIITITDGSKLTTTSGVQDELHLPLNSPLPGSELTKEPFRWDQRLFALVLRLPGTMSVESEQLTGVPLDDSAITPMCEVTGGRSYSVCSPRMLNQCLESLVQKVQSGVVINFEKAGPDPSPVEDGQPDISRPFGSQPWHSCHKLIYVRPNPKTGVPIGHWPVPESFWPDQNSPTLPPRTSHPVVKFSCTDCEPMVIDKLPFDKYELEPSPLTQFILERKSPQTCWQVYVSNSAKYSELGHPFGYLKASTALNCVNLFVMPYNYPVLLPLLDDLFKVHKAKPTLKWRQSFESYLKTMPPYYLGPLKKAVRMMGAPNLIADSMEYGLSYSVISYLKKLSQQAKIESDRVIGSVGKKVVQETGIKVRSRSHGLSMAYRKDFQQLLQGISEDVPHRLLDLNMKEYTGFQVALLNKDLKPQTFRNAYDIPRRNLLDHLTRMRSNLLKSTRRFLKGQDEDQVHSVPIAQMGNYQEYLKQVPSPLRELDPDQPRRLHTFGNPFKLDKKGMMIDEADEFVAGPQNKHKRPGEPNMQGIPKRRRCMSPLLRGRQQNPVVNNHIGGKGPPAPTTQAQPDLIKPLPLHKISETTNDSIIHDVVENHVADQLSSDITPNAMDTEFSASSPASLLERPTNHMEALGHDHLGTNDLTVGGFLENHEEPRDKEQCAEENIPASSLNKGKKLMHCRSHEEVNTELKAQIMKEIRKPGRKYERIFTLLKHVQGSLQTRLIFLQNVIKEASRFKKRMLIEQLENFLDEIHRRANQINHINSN

Compound: Nc1nc2c(ncn2[C@@H]2O[C@H](COP(=O)(O)OP(=O)(O)OP(=O)(O)O)[C@@H](O)[C@H]2O)c(=O)[nH]1 [guanosine triphosphate]
Experiment: NP40-soluble protein abundance relative to vehicle (solubility fold change) (ratio); higher = more soluble protein in presence of GTP
How it was run: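 Jurkat crude lysate prepared with a Dounce homogeniser was treated at eight concentrations spanning 0.1 to 10 mM, 10 min at room temperature then 3 min at 37 °C. Solubilisation with 0.8% NP40 and benzonase and ultracentrifugation preceded TMT labelling of the supernatant for LC-MS/MS. Fold change against the detergent-processed vehicle was determined per replicate from vsn-normalised intensities, across three independent experiments.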

| Target | NP40-soluble protein abundance (concentration: 0.1mM) | NP40-soluble protein abundance (concentration: 0.5mM) | NP40-soluble protein abundance (concentration: 1mM) | NP40-soluble protein abundance (concentration: 2mM) | NP40-soluble protein abundance (concentration: 4mM) | NP40-soluble protein abundance (concentration: 6mM) | NP40-soluble protein abundance (concentration: 8mM) | NP40-soluble protein abundance (concentration: 10mM) |
| --- | --- | --- | --- | --- | --- | --- | --- | --- |
| UniProt Q9NYU2 and related entries | 1 ± 0.013 | 1.04 ± 0.05 | 0.956 ± 0.014 | 0.955 ± 0.043 | 0.942 ± 0.023 | 0.951 ± 0.028 | 0.9104 ± 0.008 | 0.885 ± 0.035 |
| MRPL15 (UniProt Q9P015) | 1.14 ± 0.13 | 1.27 ± 0.31 | 1.46 ± 0.41 | 1.59 ± 0.47 | 1.62 ± 0.56 | 1.53 ± 0.48 | 1.49 ± 0.48 | 1.43 ± 0.52 |
| AK3 (UniProt Q9UIJ7) | 0.926 ± 0.061 | 0.875 ± 0.029 | 0.924 ± 0.029 | 0.917 ± 0.061 | 0.902 ± 0.075 | 0.886 ± 0.059 | 0.825 ± 0.1 | 0.853 ± 0.064 |
| UniProt Q9P2R7 and related entries | 0.948 ± 0.063 | 0.955 ± 0.055 | 0.895 ± 0.048 | 0.874 ± 0.046 | 0.855 ± 0.033 | 0.857 ± 0.039 | 0.847 ± 0.062 | 0.831 ± 0.065 |
| UniProt Q9NZN5 and related entries | 1.08 ± 0.024 | 1.07 ± 0.11 | 1.03 ± 0.034 | 1.01 ± 0.082 | 1.01 ± 0.069 | 1.07 ± 0.1 | 0.998 ± 0.057 | 1.05 ± 0.061 |
| UniProt Q9UJX6 and related entries | 1.3 ± 0.28 | 1.33 ± 0.37 | 1.18 ± 0.28 | 1.26 ± 0.47 | 1.3 ± 0.37 | 1.25 ± 0.46 | 1.12 ± 0.31 | 1.22 ± 0.48 |
| GRHPR (UniProt Q9UBQ7) | 0.995 ± 0.024 | 1.01 ± 0.067 | 0.847 ± 0.042 | 0.866 ± 0.06 | 0.834 ± 0.039 | 0.829 ± 0.036 | 0.773 ± 0.059 | 0.798 ± 0.062 |
| DDX20 (UniProt Q9UHI6) | 1.06 ± 0.06 | 1.1 ± 0.083 | 1.13 ± 0.16 | 1.22 ± 0.18 | 1.3 ± 0.21 | 1.26 ± 0.2 | 1.26 ± 0.2 | 1.26 ± 0.24 |
| CCDC59 (UniProt Q9P031) | 1.06 ± 0.1 | 0.924 ± 0.012 | 1.07 ± 0.035 | 1.08 ± 0.016 | 1.08 ± 0.037 | 0.986 ± 0.048 | 1.02 ± 0.056 | 1.06 ± 0.052 |
| IGF2BP1 (UniProt Q9NZI8) | 0.962 ± 0.018 | 0.989 ± 0.01 | 0.965 ± 0.035 | 0.957 ± 0.057 | 0.958 ± 0.054 | 0.982 ± 0.059 | 0.978 ± 0.044 | 0.971 ± 0.06 |
| UniProt Q9NZB8 and related entries | 1.02 ± 0.035 | 0.955 ± 0.062 | 0.933 ± 0.0079 | 0.946 ± 0.067 | 0.894 ± 0.027 | 0.915 ± 0.056 | 0.872 ± 0.017 | 0.847 ± 0.067 |
| UniProt Q9P2W1 and related entries | 0.896 ± 0.054 | 0.863 ± 0.084 | 0.987 ± 0.024 | 0.995 ± 0.062 | 1.02 ± 0.051 | 0.969 ± 0.081 | 0.962 ± 0.08 | 1.04 ± 0.017 |
| UniProt Q9UGU5 and related entries | 0.97 ± 0.092 | 1.02 ± 0.14 | 1.05 ± 0.098 | 1.03 ± 0.13 | 1.08 ± 0.16 | 1.19 ± 0.16 | 1.11 ± 0.16 | 1.18 ± 0.16 |
| UniProt Q9UL03 and related entries | 1.1 ± 0.13 | 1.13 ± 0.17 | 1.18 ± 0.24 | 1.26 ± 0.24 | 1.3 ± 0.23 | 1.27 ± 0.22 | 1.28 ± 0.26 | 1.28 ± 0.23 |
| NECAP2 (UniProt Q9NVZ3) | 1.02 ± 0.1 | 0.984 ± 0.064 | 0.993 ± 0.097 | 0.915 ± 0.077 | 0.875 ± 0.087 | 0.895 ± 0.084 | 0.9 ± 0.11 | 0.883 ± 0.089 |

Already shown: an excerpt of the list.

| Target | NP40-soluble protein abundance (concentration: 0.1mM) | NP40-soluble protein abundance (concentration: 0.5mM) | NP40-soluble protein abundance (concentration: 1mM) | NP40-soluble protein abundance (concentration: 2mM) | NP40-soluble protein abundance (concentration: 4mM) | NP40-soluble protein abundance (concentration: 6mM) | NP40-soluble protein abundance (concentration: 8mM) | NP40-soluble protein abundance (concentration: 10mM) |
| --- | --- | --- | --- | --- | --- | --- | --- | --- |
| UniProt Q9NZN5 and related entries | 1.08 ± 0.024 | 1.07 ± 0.11 | 1.03 ± 0.034 | 1.01 ± 0.082 | 1.01 ± 0.069 | 1.07 ± 0.1 | 0.998 ± 0.057 | 1.05 ± 0.061 |
| UniProt Q9UJX6 and related entries | 1.3 ± 0.28 | 1.33 ± 0.37 | 1.18 ± 0.28 | 1.26 ± 0.47 | 1.3 ± 0.37 | 1.25 ± 0.46 | 1.12 ± 0.31 | 1.22 ± 0.48 |
